Data as given in PubChem BioAssay AID720505 (Drosophila RNAi Screening Center, 2013).
Purpose: 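Knock-downs that reduce calcium influx once internal stores are emptied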 (primary screen). Cells: Drosophila S2R+ cells. Reagent: long dsRNA against Drosophila genes. Conditions: thapsigargin (2 µM) in calcium-free buffer to empty internal stores, then 2 mM calcium added back. Detection: 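Fluo-4 signal in 384-well plates read on a FLIPR after thapsigargin (2 µM, calcium-free) store depletion and 2 mM calcium add-back; unnormalised mean endpoint per well; screen run twice, selected wells retested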. Scale: calcium signal and retest calcium signal: higher = more calcium entry after store depletion. Active means: 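Knock-downs counted as hits when calcium entry dropped relative to STIM1 positive and Rho1 negative controls present on each plate; roughly 1500 genes called, with reductions of differing size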. Calls: active = called as lowering calcium entry; inactive = not called.
The screen tested about 20,000 reagents; this is a random part of those with a known target gene and a result. In the full data, about 2,100 (10%) got an active call. 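Raw plate signals without normalisation; calls rest on control-based scores that were not deposited; replicate 2 separates called from uncalled poorly.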 The numbers tell different reagents against one gene apart. No sequences are given here. The record does not give: the amount of reagent, the time to read-out.

Target gene,reagent no.,"calcium signal, replicate 1","calcium signal, replicate 2","retest calcium signal, replicate 1","retest calcium signal, replicate 2",call
trsn,1,162,140,,,inactive
lig,1,171,200,,,inactive
lig,2,116,138,,,inactive
DUBAI,1,187,190,,,inactive
nolo,1,152,123,,,inactive
nolo,2,72.2,80.9,,,active
nolo,3,74.4,101,,,active
CG30378,1,126,144,,,inactive
CG33080,1,241,134,,,inactive
CG33080,2,223,105,,,inactive
CG33080,3,72.1,179,,,active
dap,1,115,143,,,inactive
ND4 (retired record),1,75.7,107,,,active
CG13008,1,112,180,,,inactive
CG13008,2,104,177,,,inactive
CNMaR,1,74.6,105,,,inactive
ATPsynGL,1,71.4,79.5,,,active
CG17261,1,111,126,,,inactive
CG43188,1,63.8,125,,,inactive
CG12224,1,176,92.1,,,inactive
regucalcin,1,69.3,83.5,,,active
Grip84,1,97.3,94.9,,,inactive
H2.0,1,200,111,125,106,inactive
H2.0,2,89.3,154,,,inactive
uno,1,114,131,,,inactive
RpL13A,1,107,80.7,,,inactive
Traf4,1,69.8,101,,,active
Traf4,2,128,246,,,inactive
Sps2,1,142,151,,,inactive
CG2493,1,110,125,,,inactive
CG11983,1,113,158,,,inactive
CG7778,1,164,226,,,inactive
Ctu2,1,110,112,,,inactive
eca,1,75.6,158,,,inactive
fliI,1,132,183,,,inactive
AttC,1,178,179,,,inactive
cdi,1,111,224,,,inactive
CG17002,1,194,106,,,inactive
Cpr49Ae,1,169,146,,,inactive
Bdp1,1,86.6,150,,,inactive
CG8192,1,123,133,,,inactive
CG2816,1,155,77.4,,,inactive
CG9541,1,99,105,,,inactive
lt,1,194,122,,,inactive
EAChm,1,87.8,211,,,inactive
CG2656,1,122,128,,,inactive
eEF2,1,100,121,,,inactive
ben,1,97.3,84.5,,,inactive
ben,2,154,85.6,,,inactive
nub,1,144,81,,,inactive
nub,2,122,137,,,inactive
nub,3,114,103,,,inactive
nub,4,89.4,99.3,,,inactive
nub,5,47.5,67.8,,,active
scb,1,133,147,,,inactive
scb,2,124,166,,,inactive
